According to publication PMC8771856:
No constants are given. Whether binding was seen depends on the method and setting. In cells and extracts the contact can be indirect. Some binding calls cover weakened binding; strength is not graded here.

Amino acid sequences for entries named in this document (tags omitted). A change or cut given only in a name is not applied to a line headed by its entry.
UniProt P09874: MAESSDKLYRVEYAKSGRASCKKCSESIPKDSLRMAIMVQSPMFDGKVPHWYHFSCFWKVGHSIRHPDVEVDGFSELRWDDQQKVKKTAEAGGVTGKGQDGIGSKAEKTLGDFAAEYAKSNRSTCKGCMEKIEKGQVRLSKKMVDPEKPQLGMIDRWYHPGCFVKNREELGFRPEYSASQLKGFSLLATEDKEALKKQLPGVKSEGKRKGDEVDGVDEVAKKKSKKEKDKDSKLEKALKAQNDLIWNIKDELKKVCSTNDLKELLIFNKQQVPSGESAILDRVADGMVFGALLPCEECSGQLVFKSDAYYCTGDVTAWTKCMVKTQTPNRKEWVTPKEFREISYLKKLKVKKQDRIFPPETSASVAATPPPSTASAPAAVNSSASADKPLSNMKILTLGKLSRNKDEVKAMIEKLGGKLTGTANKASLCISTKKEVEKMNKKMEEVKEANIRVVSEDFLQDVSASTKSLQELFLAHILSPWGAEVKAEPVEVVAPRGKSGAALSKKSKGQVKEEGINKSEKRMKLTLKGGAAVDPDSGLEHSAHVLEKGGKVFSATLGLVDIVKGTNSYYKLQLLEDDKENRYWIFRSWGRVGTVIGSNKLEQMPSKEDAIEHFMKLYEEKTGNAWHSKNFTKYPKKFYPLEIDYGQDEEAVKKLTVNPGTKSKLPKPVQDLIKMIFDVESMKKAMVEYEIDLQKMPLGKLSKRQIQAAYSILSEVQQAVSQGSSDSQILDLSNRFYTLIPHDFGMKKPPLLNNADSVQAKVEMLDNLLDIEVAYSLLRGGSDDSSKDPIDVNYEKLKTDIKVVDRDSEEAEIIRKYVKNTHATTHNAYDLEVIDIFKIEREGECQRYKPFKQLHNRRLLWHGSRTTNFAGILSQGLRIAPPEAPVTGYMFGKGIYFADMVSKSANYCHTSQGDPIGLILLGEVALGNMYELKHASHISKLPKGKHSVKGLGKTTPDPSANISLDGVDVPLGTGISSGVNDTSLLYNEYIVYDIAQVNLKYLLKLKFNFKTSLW
UniProt P15311: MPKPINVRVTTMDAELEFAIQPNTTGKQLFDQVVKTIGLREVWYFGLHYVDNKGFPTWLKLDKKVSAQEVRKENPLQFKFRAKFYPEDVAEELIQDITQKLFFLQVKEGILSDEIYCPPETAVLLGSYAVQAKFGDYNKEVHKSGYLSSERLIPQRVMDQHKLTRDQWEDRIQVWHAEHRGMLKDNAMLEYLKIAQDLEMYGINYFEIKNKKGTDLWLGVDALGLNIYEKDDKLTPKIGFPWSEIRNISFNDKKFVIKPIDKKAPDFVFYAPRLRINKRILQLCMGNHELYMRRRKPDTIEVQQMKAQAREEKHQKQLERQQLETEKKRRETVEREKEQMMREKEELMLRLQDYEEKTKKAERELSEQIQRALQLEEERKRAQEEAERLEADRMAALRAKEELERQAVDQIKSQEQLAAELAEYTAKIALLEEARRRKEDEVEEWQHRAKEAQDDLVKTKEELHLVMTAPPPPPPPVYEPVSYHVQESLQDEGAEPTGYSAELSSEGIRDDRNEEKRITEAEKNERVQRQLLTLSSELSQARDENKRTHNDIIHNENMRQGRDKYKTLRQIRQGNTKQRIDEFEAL

Key:
[1] = target: Poly (ADP-ribose) polymerase 1 (PARP1), endogenous in 143B cells (human (endogenous in 143B)) (UniProt P09874); assay: co-IP; 143B cell lysate, co-IP with anti-PARP1 or control IgG antibodies, western blotting
[2] = target: Poly (ADP-ribose) polymerase 1 (PARP1), endogenous in 143B cells (human (endogenous in 143B)) (UniProt P09874); assay: co-IP; immunoprecipitation from 143B cells transfected with flag-labeled full-length or truncated ezrin, western blotting; which partner was precipitated is not stated

Row | binding [1] | binding [2] | Substance
1 | binds |  | Ezrin, endogenous in 143B cells (from UniProt P15311 1-586)
2 |  | binds | flag-labeled ezrin, full length 1-586aa (from UniProt P15311 1-586)
3 |  | binds | flag-labeled truncated ezrin 298-586aa (from UniProt P15311 298-586) (domain or fragment)
